No constants are given. Whether binding was seen depends on the method and setting. Binding seen in cells or lysates may run through a third protein. Here binding means that the protein was enriched with, or labelled near, the bait; the list need not be complete.
B1: PSMA2 (protein, UniProt P17220 1-234)
chain: MAERGYSFSLTTFSPSGKLVQIEYALAAVAGGAPSVGIKAANGVVLATEKKQKSILYDERSVHKVEPITKHIGLVYSGMGPDYRVLVHRARKLAQQYYLVYQEPIPTAQLVQRVASVMQEYTQSGGVRPFGVSLLICGWNEGRPYLFQSDPSGAYFAWKATAMGKNYVNGKTFLEKRYNEDLELEDAIHTAILTLKESFEGQMTEDNIEVGICNEAGFRRLTPTEVRDYLAAIA
B2: PSMA4 (protein, UniProt P21670 1-261)
chain: MSRRYDSRTTIFSPEGRLYQVEYAMEAIGHAGTCLGILANDGVLLAAERRNIHKLLDEVFFSEKIYKLNEDMACSVAGITSDANVLTNELRLIAQRYLLQYQEPIPCEQLVTALCDIKQAYTQFGGKRPFGVSLLYIGWDKHYGFQLYQSDPSGNYGGWKATCIGNNSAAAVSMLKQDYKEGEMTLKSALALAVKVLNKTMDVSKLSAEKVEIATLTRENGKTVIRVLKQKEVEQLIKKHEEEEAKAEREKKEKEQREKDK
B3: PSMA5 (protein, UniProt P34064 1-241)
chain: MFLTRSEYDRGVNTFSPEGRLFQVEYAIEGHKLGSTAIGIQTSEGVCLAVEKRITSPLMEPSSIEKIVEIDAHIGCAMSGLIADAKTLIDKARVETQNHWFTYNETMTVESVTQAVSNLALQFGEEDADPGAMSRPFGVALLFGGVDEKGPQLFHMDPSGTFVQCDARAIGSASEGAQSSLQEVYHKSTTLKEAIKSSLIILKQVMEEKLNATNIELATVQPGQNFHMFTKEELEEVIKDI
B4: TMOD1 (protein, UniProt P70567 1-359)
chain: MSYRRELEKYRDLDEDEILGALTEEELRTLENELDELDPDNALLPAGLRQKDQTTKAPTGPFKREELLDHLEKQAKEFKDREDLVPYTGEKRGKIWVPKQKPMDPVLESVTLEPELEEALANASDAELCDIAAILGMHTLMSNQQYYQALGSSSIVNKEGLNSVIKPTQYKPVPDEEPNPTDVEETLERIKNNDPELEEVNLNNIRNIPIPTLKAYAESLKENSYVKKFSIVGTRSNDPVAFALAEMLKVNKVLKTLNVESNFISGAGILCLVEALPHNTSLVELKIDNQSQPLGNKVEMEIVNMLEKNTTLLKFGYHFTQQGPRLRASNAMMNNNDLVRKRRLADLTGPIIPKCRSGV
B5: ALDOA (protein, UniProt P05065 1-364)
chain: MPHPYPALTPEQKKELADIAHRIVAPGKGILAADESTGSIAKRLQSIGTENTEENRRFYRQLLLTADDRVNPCIGGVILFHETLYQKADDGRPFPQVIKSKGGVVGIKVDKGVVPLAGTNGETTTQGLDGLSERCAQYKKDGADFAKWRCVLKIGEHTPSSLAIMENANVLARYASICQQNGIVPIVEPEILPDGDHDLKRCQYVTEKVLAAVYKALSDHHVYLEGTLLKPNMVTPGHACTQKFSNEEIAMATVTALRRTVPPAVPGVTFLSGGQSEEEASINLNAINKCPLLKPWALTFSYGRALQASALKAWGGKKENLKAAQEEYIKRALANSLACQGKYTPSGQSGAAASESLFISNHAY

Sequences of proteins named here, by UniProt entry; tags and fusion partners are left off.
UniProt Q02078: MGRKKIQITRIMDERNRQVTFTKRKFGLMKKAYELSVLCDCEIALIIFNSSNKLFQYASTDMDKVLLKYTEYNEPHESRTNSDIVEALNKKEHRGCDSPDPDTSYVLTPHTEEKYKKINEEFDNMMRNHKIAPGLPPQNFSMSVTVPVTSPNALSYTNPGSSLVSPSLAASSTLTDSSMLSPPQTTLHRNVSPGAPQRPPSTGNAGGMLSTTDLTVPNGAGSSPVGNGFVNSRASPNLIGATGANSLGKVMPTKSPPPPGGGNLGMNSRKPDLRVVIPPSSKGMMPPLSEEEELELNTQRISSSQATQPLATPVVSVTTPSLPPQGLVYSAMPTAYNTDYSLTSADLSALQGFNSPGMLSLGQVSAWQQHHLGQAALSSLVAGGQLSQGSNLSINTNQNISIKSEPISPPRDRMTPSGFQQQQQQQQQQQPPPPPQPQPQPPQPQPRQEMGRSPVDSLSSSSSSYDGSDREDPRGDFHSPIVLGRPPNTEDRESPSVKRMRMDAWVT

The binders below were run against 3xFlag-MEF2A (UniProt Q02078) (assay: affinity purification with mass spectrometry; 3xFlag-MEF2A expressed in primary neonatal rat cardiomyocytes, captured on anti-Flag magnetic beads, eluted with 0.2% TFA in 20% acetonitrile (pH 1.9), trypsin digest, iTRAQ labelling, LC-MS/MS; 3 Flag-MEF2A and 3 non-transfected control IPs).

Question: How did the binding turn out when B1 was run?
Answer: The binding was “binds”.

Question: How did the binding turn out when B2 was run?
Answer: Its binding is “binds”.

Question: With B3 as the binder, how does the binding read?
Answer: The binding was “binds”.

Question: B4 was tested. Which binding did it give?
Answer: The binding was “binds”.

Question: For B5, which binding is on record?
Answer: The binding was “binds”.

Source: publication PMC10076289
